# Results as given in PMC6547688.
# The chains behind the UniProt entries cited, without tags or fusion partners. Where a name states a change or a piece, a line headed by the entry shows the natural chain unless it says otherwise.
# UniProt Q5W0B1: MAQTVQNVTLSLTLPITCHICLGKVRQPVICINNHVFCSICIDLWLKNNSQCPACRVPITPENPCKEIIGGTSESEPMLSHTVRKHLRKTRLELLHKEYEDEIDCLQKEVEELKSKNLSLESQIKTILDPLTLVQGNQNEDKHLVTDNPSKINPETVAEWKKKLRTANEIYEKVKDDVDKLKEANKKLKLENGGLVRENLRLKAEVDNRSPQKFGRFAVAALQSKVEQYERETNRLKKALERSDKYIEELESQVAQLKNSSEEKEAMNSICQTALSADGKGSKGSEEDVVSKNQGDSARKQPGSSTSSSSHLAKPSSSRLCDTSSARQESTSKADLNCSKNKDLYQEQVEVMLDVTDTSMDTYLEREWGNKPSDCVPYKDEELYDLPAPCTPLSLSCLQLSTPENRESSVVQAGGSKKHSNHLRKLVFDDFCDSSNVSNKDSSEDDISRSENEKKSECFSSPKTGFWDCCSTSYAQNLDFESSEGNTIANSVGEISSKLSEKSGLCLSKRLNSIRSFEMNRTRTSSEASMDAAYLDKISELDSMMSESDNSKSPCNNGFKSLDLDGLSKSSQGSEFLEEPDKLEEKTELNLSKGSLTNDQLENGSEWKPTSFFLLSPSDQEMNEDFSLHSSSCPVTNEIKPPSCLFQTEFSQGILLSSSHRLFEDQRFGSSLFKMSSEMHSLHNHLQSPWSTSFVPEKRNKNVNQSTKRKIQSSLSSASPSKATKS
# These are yes or no findings as the source states them, for the method shown. In cells and extracts the contact can be indirect. Where a sequence is shown, tags or fusion partners need not be part of it.
# Target: T1, Flag-ORC1, ectopic (human) (UniProt Q13415)
# T1 sequence: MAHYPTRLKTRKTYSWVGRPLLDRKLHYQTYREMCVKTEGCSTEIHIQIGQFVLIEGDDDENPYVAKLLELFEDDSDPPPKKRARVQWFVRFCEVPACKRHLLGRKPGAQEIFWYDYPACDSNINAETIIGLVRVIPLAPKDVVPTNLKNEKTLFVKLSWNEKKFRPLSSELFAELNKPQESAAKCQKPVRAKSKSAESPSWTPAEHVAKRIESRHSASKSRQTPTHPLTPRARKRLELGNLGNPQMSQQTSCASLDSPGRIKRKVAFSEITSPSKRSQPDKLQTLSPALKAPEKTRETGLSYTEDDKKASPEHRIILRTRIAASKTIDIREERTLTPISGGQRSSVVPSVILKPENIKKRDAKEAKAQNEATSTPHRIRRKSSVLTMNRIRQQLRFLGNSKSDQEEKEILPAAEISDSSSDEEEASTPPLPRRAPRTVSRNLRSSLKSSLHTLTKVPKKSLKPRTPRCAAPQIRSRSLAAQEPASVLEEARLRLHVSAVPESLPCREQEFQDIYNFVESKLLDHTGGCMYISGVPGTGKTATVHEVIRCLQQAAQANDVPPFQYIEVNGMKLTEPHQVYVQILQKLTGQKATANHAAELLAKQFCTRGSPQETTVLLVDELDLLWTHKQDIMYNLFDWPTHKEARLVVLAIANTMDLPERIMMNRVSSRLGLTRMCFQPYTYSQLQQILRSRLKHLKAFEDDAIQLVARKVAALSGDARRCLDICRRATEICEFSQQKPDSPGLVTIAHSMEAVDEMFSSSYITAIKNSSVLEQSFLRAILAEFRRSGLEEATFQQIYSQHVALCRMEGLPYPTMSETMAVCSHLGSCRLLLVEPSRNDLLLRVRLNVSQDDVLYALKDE
# Assay: co-IP; transfected cells lysed in TK300 buffer (20 mM Tris-HCl pH 7.9, 300 mM KCl, 5 mM MgCl2, 10% glycerol, 0.5% NP-40); anti-Flag agarose beads, 4 h at 4 °C; western blotting
row,binding,Substance
1,no binding,OBI1 deletion mutant lacking the C-terminal extension (human) (domain or fragment)
2,no binding,OBI1 deletion mutant lacking the coiled-coil domain (from UniProt Q5W0B1) (enzyme)
